This note sets out measurements from publication PMC7924758, “IAA3-mediated repression of PIF proteins coordinates light and auxin signaling in Arabidopsis” (PLoS Genetics, 2021).

In the assay the target is T1, IAA3 fused to the C-terminal fragment of luciferase (c-LUC) (Arabidopsis thaliana) (UniProt Q38822).
T1 sequence: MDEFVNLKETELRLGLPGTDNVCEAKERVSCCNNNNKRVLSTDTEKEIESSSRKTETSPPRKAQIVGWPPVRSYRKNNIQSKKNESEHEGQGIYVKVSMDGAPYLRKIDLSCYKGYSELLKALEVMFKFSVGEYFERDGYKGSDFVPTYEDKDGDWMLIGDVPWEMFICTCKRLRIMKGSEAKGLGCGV
Description: split reporter; firefly luciferase complementation imaging (LCI) with truncated PIF4 (nLUC) and truncated IAA3 (cLUC), Fig 4G-I; host not stated for these panels.

These are yes or no findings as the source states them, for the method shown. In cells and extracts the contact can be indirect. Binding can be weak; no strength is given. Sequences can lack the tags named with a protein.

“PIF4ΔC (PIF4 without the bHLH domain) (Arabidopsis thaliana) (domain or fragment)”: the binding entry is listed as “binds”.

As to “PIF4ΔN (PIF4 without the APB domain) (Arabidopsis thaliana) (domain or fragment)”, the binding entry is on record as “binds”.
